The source of these data is PubChem BioAssay AID2685 (National Center for Advancing Translational Sciences (NCATS), 2010).

Structures are written as SMILES. This is one part of the list. These are further read-outs of the screen, such as a control signal, another cell line or another target. No call is given for them. The list favours compounds with an active or inconclusive main result. The note in brackets gives the kind of curve behind each potency; many fits are weak.

This experiment can be described thus: qHTS Assay for Lipid Storage Modulators in Drosophila S3 Cells.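 As to cell number change: cells counted by Cell Tracker Red CMTPX staining in the red channel.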 The conditions noted are these: BODIPY lipid droplet fluorescence, 18-24 h; for cell number change: measured here: cell count max response, cells fed with added oleic acid. In outline: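 Drosophila S3 cells loaded with oleic acid (400 uM, as added) and compounds at several concentrations; lipid droplets imaged by 488-nm laser-scanning cytometry, 500–530 nm intensity and object ratio to cell channel. Percent activity normalized to 20 uM Triacsin C.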

Setting [1] is: measured here: cell number channel AC50, cells fed with added oleic acid.
Where [2] appears, read: measured here: lipid fluorescence (Fed channel) AC50, cells fed with added oleic acid.

Take `Cn1c(Cc2ccccc2)nnc1SCC(=O)NC1CCCCC1`: the cell number change is -145%. Besides, the AC50 under setting [1] was 25.9 µM [falling, partial curve]. Further, the AC50 under setting [2] is 23.1 µM [falling, partial curve].

For the compound `Cc1c(NS(=O)(=O)c2ccc(NC3CCCC3)c([N+](=O)[O-])c2)c(=O)n(-c2ccccc2)n1C`, the cell number change is 35.3%. The AC50 under setting [1] is 5.17 µM [rising, full curve, poor fit]. The AC50 under setting [2] was 29.1 µM [rising, single point].

For the compound `COc1ccccc1C(=O)OCC(=O)NC(=O)NCc1ccccc1`, the cell number change came out at 32.7%.

`C/C=C(/C)C(=O)O[C@@H]1c2c(ccc3ccc(=O)oc23)O[C@@H]1C(C)(C)OC(=O)/C(C)=C\C`: the cell number change is -10.3%. The AC50 under setting [2] was 20.6 µM [falling, partial curve, poor fit].

On to `Cn1ncc(Cl)c1C(=O)NCc1ccc(Cl)cc1`, for which the cell number change was -5.89%. In addition, the AC50 under setting [2] is 25.9 µM [falling, single point].

On to `CCN(C(=O)CSc1nnc(-c2ccncc2)n1Cc1ccccc1)C1CCS(=O)(=O)C1` (centres undefined), for which the cell number change was 125%.

As to `O=c1oc2ccccc2c2c1C(c1ccc(Cl)cc1)Nc1ccc3ccccc3c1-2` (centres undefined), the cell number change turned out to be 75.6%. Further, the AC50 under setting [1] was 7.31 µM [rising, partial curve]. Moreover, the AC50 under setting [2] is 29.1 µM [rising, single point].

As to `COc1ccccc1C1c2[nH]c3ccccc3c2CCN1Cc1ccc(NC(C)=O)s1` (centres undefined), the cell number change was 18.5%. Also, the AC50 under setting [1] is 2.91 µM [rising, partial curve].

With `Cc1nc(C)n(CC(O)COc2ccc3cc(Br)ccc3c2)n1` (centres undefined), the cell number change is 80.9%. Under setting [1], the AC50 was 25.9 µM [rising, partial curve]. Under setting [2], the AC50 is 0.00517 µM [rising, full curve, poor fit].

`NC(=O)C1CCN(C(=O)CSc2nc3ccccc3[nH]2)CC1`: the cell number change was -63.9%. Further, the AC50 under setting [1] is 1.84 µM [falling, partial curve, poor fit]. Further, under setting [2], the half-maximal activity concentration (AC50) is 23.1 µM [falling, partial curve].

Turning to `Cc1c(-c2ccn[nH]2)cc(NC(=O)c2ccc(Cl)cc2)c(=O)n1N`, the cell number change came out at 61%. Besides, under setting [1], the AC50 is 0.731 µM [rising, full curve]. Further, the concentration at half-maximal activity (AC50) under setting [2] was 18.4 µM [rising, single point].

In the case of `O=C(Cc1ccccc1)N/N=C/c1ccccc1OCc1ccc(Cl)cc1`, the cell number change was 11.8%. The AC50 under setting [2] was 18.4 µM [falling, single point].

Turning to `Cc1[nH]nc2ncc(C(=O)c3cc(Cl)cc(Cl)c3O)cc12`, the AC50 under setting [2] is 2.91 µM [rising, partial curve].

Regarding `Cc1ccc(NC(=S)N2CCCC(c3ccccc3)=N2)cc1`, the cell number change was found to be 12.4%. The concentration at half-maximal activity (AC50) under setting [2] was 2.06 µM [rising, partial curve, poor fit].

Consider `COc1ccccc1NC(=O)C[n+]1ccccc1C`, for which the cell number change was -13.5%.

As to `COc1ccc(C(OCC(O)CN2CCC(O)CC2)c2ccc(OC)cc2)cc1` (centres undefined), the cell number change is 11.5%.

On to `CC1CC(C)CN(Cc2nc(N)nc(Nc3ccc4ccccc4c3)n2)C1` (centres undefined), for which, under setting [1], the half-maximal activity concentration (AC50) was 0.411 µM [rising, single point].

Turning to `COc1ccc(NC(=O)CN(C)C(=O)c2ccc(N3CCCCC3)c([N+](=O)[O-])c2)cc1`, the cell number change is -11.8%. Moreover, the AC50 under setting [2] is 0.517 µM [falling, full curve].

Regarding `Cc1ccc(C(=O)Nc2ccc3nccnc3c2)cc1`, the cell number change was -11.8%. Also, the concentration at half-maximal activity (AC50) under setting [2] is 29.1 µM [rising, single point].

On to `CC(Oc1cc2oc(=O)c3c(c2cc1Cl)CCC3)C(=O)NCCCN1CCCC1=O` (centres undefined), for which the AC50 under setting [2] was 0.13 µM [falling, full curve, poor fit].

On to `CC1(C)CC2CC(C)(CN2c2ncnc3ccc(Br)cc23)C1` (centres undefined), for which the cell number change is -47.4%. The AC50 under setting [1] was 20.6 µM [falling, single point]. Besides, the AC50 under setting [2] is 29.1 µM [falling, single point].

Turning to `C[C@H](OC(=O)N1CCN(C(c2ccccc2)c2ccccc2)CC1)[C@@H]1O[C@@]2(C)CCC[C@H]1O2`, the cell number change turned out to be 9.24%. For the same compound, the half-maximal activity concentration (AC50) under setting [2] is 25.9 µM [rising, single point].

As for `CCOC(=O)c1sc(/N=C/c2ccc(O)cc2O)cc1C`, the cell number change is 20.5%.

Regarding `Nc1ccc2c(c1)CC(=O)c1ccccc1S2`, the cell number change was -53.2%. In addition, the half-maximal activity concentration (AC50) under setting [1] is 29.1 µM [falling, single point]. Besides, the AC50 under setting [2] is 2.31 µM [rising, partial curve, poor fit].

As to `N/C(=N\NS(=O)(=O)c1ccccc1C(F)(F)F)c1ccccn1`, the cell number change was -37.2%. For the same compound, the AC50 under setting [1] was 16.4 µM [falling, single point]. Moreover, under setting [2], the AC50 was 29.1 µM [falling, single point].

`COc1ccc(CCNC(=O)C/C(C)=N/NC(=O)C2CCCCC2)cc1OC`: the cell number change was -25.5%.

For `CCOc1cc(NC(=S)NCC2CCCO2)c(OCC)cc1NC(=O)c1ccccc1` (centres undefined), the AC50 is, setting by setting: under setting [1], 0.092 µM [rising, full curve, poor fit]; under setting [2], 0.082 µM [rising, full curve, poor fit].

Regarding `O=C(NCc1cccnc1)c1cc(Cl)ccc1[N+](=O)[O-]`, the cell number change stood at 14.1%. Under setting [1], the AC50 is 4.11 µM [falling, single point].

For `CN1CCC(=NNC(=O)CN(c2ccc([N+](=O)[O-])cc2)S(=O)(=O)c2ccccc2)CC1`, the cell number change is -35.5%. The concentration at half-maximal activity (AC50) under setting [1] was 23.1 µM [falling, single point].

In the case of `CN(CCO)C(=O)C1CCN(c2ncc(C(F)(F)F)cc2Cl)CC1`, the cell number change was -10.5%. Further, under setting [1], the AC50 is 0.00461 µM [falling, full curve, poor fit].

For `CCn1c(Oc2ccccc2C)nc2c1c(=O)n(C)c(=O)n2C`, the cell number change was -6.67%.

Take `O=C(CCN1CCN(C/C=C/c2ccccc2)CC1)Nc1cccc(F)c1`: the cell number change was -54.3%. The AC50 under setting [2] was 0.411 µM [rising, single point].

Turning to `COc1ccccc1C(=O)Nc1ccc(OCC(=O)N2CC(C)CC(C)C2)cc1` (centres undefined), the cell number change worked out at 21.9%. Also, the AC50 under setting [2] is 29.1 µM [rising, single point].

Consider `Nc1[nH]c2cc([N+](=O)[O-])ccc2c1-c1ccccn1`, for which the cell number change turned out to be 29.3%.

In the case of `Cn1c(=O)c2c(nc(NCCO)n2C)n(C)c1=O`, the cell number change came out at 1.95%. For the same compound, the concentration at half-maximal activity (AC50) under setting [2] was 29.1 µM [falling, single point].

For the compound `Cc1cc(NC(=O)c2ccc(NC(=O)CC(C)C)cc2)no1`, the cell number change worked out at 17.4%. Also, under setting [2], the concentration at half-maximal activity (AC50) was 29.1 µM [rising, single point].

As for `CCSc1ncc(Cl)c(C(=O)Nc2ccccc2F)n1`, the cell number change was -16.9%. Moreover, the half-maximal activity concentration (AC50) under setting [2] was 7.31 µM [falling, partial curve].

For the compound `COC(=O)c1cc(S(=O)(=O)N2CCN(Cc3ccccc3)CC2)c[nH]1`, the cell number change is 3.13%. In addition, under setting [2], the AC50 was 20.6 µM [falling, single point].
